Results are given in words; binding and its absence hold for the method and conditions named. In cells and extracts the contact can be indirect. Some entries that bind do so weakly or less than the wild type.

Protein sequences, listed by entry. Tags and fused reporters are not part of them. Lines headed by an entry give the natural chain unless they say otherwise; changes in a name come on top.
UniProt P09936: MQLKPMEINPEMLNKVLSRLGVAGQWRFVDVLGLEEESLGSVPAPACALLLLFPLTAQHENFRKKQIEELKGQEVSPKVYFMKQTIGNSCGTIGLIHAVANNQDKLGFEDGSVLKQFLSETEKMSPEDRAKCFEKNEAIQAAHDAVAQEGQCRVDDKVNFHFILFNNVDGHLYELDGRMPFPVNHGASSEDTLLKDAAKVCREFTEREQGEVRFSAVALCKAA
UniProt P35222: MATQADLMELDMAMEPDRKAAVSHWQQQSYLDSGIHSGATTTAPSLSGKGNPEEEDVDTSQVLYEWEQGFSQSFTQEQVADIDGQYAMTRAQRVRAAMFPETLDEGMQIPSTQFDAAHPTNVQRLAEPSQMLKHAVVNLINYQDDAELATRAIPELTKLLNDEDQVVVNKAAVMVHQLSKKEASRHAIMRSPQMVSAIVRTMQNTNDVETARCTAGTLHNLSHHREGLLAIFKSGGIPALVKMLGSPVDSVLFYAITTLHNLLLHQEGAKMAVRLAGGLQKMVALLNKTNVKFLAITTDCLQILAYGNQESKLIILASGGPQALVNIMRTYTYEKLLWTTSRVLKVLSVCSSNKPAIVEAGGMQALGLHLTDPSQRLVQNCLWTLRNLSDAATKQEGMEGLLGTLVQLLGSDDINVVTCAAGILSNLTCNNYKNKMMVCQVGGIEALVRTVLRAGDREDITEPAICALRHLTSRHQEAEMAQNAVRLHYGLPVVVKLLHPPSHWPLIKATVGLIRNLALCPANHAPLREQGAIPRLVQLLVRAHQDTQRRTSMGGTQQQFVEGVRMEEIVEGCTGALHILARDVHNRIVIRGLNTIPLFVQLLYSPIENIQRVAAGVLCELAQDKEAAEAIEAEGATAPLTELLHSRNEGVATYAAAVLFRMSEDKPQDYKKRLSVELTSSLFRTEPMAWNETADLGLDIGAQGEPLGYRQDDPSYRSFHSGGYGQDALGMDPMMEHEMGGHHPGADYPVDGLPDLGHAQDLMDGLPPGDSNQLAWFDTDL

Assay [1] deals with HA-UCH L1 wild type (UniProt P09936). The assay is described as follows: co-IP; 293 cells transfected with HA-UCH L1 wild type or mutants; UCH L1 immunoprecipitated with HA antibody 48 h after transfection; blot probed with β-catenin antibody.
The target in assay [2] is HA-UCH L1 C90S (UniProt P09936). Described as above.
The target in assay [3] is HA-UCH L1 H161D (UniProt P09936). The assay is described as above.
For assay [4], the target named is Ubiquitin C-terminal Hydrolase L1 (endogenous) (human (endogenous in KR4 and 293)) (UniProt P09936). As to the kind of experiment: co-IP; endogenous β-catenin or UCH L1 immunoprecipitated with specific antibodies from KR4 and 293 cell lysates (50 mM Tris-HCl pH 7.6, 1% NP-40, 0.25% Na-deoxycholate, 1 mM EDTA), protein A/G Sepharose, 4°C; Western blot; normal mouse and rabbit immunoglobulins as controls. (Immunoblotting shows a protein as a band on a membrane.)

Consider “β-catenin (endogenous) (from UniProt P35222 1-781)”, for which the binding entry is “binds” in assay [1], “no binding” in assay [2], “no binding” in assay [3] and “binds” in assay [4].

Values taken from paper PMC2694282.
